Measurements as given in publication doi:10.1101/572826.
No constants are given. Whether binding was seen depends on the method and setting. For some assays here: Binding seen in cells or lysates may run through a third protein. Some entries that bind do so weakly or less than the wild type. Where a sequence is shown, tags or fusion partners need not be part of it. Each block holds one binder with its values, some of them ahead of it.

How the values were obtained:
[1] = molecular target: T1, AtEDS1-3xFLAG (pEDS1:gEDS1-3xFLAG) (Arabidopsis thaliana (Col)) (UniProt Q9XF23); assay: co-IP
T1 sequence: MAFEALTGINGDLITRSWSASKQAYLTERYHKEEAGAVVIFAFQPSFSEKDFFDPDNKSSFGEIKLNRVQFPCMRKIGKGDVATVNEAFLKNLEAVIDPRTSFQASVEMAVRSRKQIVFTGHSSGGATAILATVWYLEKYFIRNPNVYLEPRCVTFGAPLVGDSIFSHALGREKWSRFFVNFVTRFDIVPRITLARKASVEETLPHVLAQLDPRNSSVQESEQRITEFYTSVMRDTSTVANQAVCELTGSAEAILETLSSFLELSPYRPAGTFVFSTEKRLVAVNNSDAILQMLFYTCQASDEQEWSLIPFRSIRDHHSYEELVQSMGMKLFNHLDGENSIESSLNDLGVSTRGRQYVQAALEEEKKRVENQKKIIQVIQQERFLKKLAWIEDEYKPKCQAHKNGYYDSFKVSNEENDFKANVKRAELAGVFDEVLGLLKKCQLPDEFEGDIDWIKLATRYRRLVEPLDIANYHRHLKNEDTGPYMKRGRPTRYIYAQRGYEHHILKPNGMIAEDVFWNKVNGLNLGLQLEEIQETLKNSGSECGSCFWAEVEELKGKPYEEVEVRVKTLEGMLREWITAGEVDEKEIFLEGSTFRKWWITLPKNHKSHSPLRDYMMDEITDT

[2] = molecular target: T2, Arabidopsis PAD4 (AtPAD4), LexA BD fusion for yeast two-hybrid (Arabidopsis thaliana (Col)) (UniProt Q9S745); assay: two-hybrid
T2 sequence: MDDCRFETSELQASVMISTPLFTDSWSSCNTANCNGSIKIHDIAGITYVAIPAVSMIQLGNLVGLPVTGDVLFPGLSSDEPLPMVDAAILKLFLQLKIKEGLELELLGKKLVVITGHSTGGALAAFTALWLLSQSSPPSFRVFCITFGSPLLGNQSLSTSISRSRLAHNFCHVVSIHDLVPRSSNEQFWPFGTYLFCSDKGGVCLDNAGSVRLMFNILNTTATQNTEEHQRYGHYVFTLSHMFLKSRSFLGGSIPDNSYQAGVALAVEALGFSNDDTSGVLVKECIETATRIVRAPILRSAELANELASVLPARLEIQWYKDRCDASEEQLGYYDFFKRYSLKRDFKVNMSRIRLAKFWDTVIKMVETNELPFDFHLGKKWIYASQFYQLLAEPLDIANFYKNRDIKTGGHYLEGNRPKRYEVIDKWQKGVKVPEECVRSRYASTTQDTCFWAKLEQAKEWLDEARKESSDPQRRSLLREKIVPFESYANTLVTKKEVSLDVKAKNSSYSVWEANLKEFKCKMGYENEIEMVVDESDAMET

binding [1]: binds
B1: AtPAD4-YFP (35S:AtPAD4-YFP) (protein, UniProt Q9S745 1-541)
chain: T2 sequence

binding [2]: binds
B2: Arabidopsis EDS1 (AtEDS1), Gal4 AD fusion for yeast two-hybrid (protein, UniProt Q9XF23 1-623)
chain: T1 sequence
